This note sets out measurements from the supplement of paper PMC10338343.

± gives the standard deviation. Only a part is listed here, and it is no random draw. The uncertainty is large for many entries.
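Note: 1 nM active piRISC with 0.1 nM target library at 33 °C single turnover.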

The subject of the assay is MIWI (PIWIL1) piRISC loaded with piRNA #1 (30 nt). Description: pre-steady-state target cleavage rate (min^-1); MIWI and MILI are mouse PIWI proteins and EfPiwi is from a freshwater sponge; tags in brackets are library labels; higher = faster piRNA-guided slicing of the target. The following applies: guide: piRNA #1 5'p-UGAGGUAGUAGGUUGUAUAGUAUCCAGAGG; auxiliary factor: 500 nM mouse GTSF1. The method in brief:
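In this Cleave-'n-Seq assay, uncleaved targets were sequenced and normalised to depth and to weakly complementary targets. They came from a transcribed, DNA-blocked target RNA library […] mixed with 1 nM active affinity-purified piRISC carrying one synthetic guide, with or without 500 nM GTSF1 partner protein, in HEPES–potassium acetate buffer at 33 °C for 0–8 or 0–960 min. After three trials were pooled and k3 was capped at 0.0001 min^-1, the pre-steady-state cleavage rate was obtained from a burst-and-steady-state fit.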
GGAGACCUAUGUAUACUACCUUCUACCUCA: the “pre-steady-state target cleavage rate” value was 0.00089 ± 0.0034. As for “CCUCUGGAUACUAUACAACGAUGAUGGAGA [g12:g30:cont:t1A]”, the figure is 0.00319 ± 0.0042; as for GGAGACCUAUGAAUACAAACUACUACCUCA, 0.00188 ± 0.0029. As for GGAGACCUAUGAAUACAUCCUACUAGCUCA, the figure is 0.00023 ± 0.012; as for GCUCUCGAUACUAUUCAACCUACUACCUCA, 1.86 ± 0.11.

Consider GGUCUGGAAACUAUACAACCUACUACCACA, for which the “pre-steady-state target cleavage rate” value amounted to 0.461 ± 0.05. As for GGAGACCUAUGAUAUGUUCCUACUAGGACA, the figure is 0.000156 ± 0.026; as for GGAGACCUAUGAUAACAAGCUACUACCUGA, 0.000257 ± 0.0098; as for GGUCUGGAUACUAUAGAACCUACUACCACA, 0.0228 ± 0.0058. As for GAUCUGGAUACUAUACAACCUACUACCUCA, the figure is 1.91 ± 0.097; as for GGUCUGGAAUACUAUACAACCUACUACCUCA, 1.83 ± 0.11. As for GGUCUGGAUACUAUACAACACUACUACCUCA, the figure is 0.00026 ± 0.011. Turning to GGACUGGAUACUAUACAACCUAUUACCUCA, the “pre-steady-state target cleavage rate” value worked out at 0.86 ± 0.075.

Take GCUCUGGAUACUAUACAACCUCUACCUCA: the “pre-steady-state target cleavage rate” value was 0.00616 ± 0.003. As for “GCUCUGGAUACUAUACUUGGAUGAUGGAGA [g15:g29:cont:t1A]”, the figure is 0.000386 ± 0.018; as for GGAGACCUAUGAUAUGUACCUACUAGGACA, 0.000124 ± 0.025. As for GCUCUGGAUACUUAUACAACCUACUACCUCA, the figure is 1.53 ± 0.084.
